Reference: the supplement of paper PMC10849652
The list shows a part of the results.

Protein sequences, listed by entry. Tags and fused reporters are not part of them. Lines headed by an entry give the natural chain unless they say otherwise; changes in a name come on top.
UniProt O75334: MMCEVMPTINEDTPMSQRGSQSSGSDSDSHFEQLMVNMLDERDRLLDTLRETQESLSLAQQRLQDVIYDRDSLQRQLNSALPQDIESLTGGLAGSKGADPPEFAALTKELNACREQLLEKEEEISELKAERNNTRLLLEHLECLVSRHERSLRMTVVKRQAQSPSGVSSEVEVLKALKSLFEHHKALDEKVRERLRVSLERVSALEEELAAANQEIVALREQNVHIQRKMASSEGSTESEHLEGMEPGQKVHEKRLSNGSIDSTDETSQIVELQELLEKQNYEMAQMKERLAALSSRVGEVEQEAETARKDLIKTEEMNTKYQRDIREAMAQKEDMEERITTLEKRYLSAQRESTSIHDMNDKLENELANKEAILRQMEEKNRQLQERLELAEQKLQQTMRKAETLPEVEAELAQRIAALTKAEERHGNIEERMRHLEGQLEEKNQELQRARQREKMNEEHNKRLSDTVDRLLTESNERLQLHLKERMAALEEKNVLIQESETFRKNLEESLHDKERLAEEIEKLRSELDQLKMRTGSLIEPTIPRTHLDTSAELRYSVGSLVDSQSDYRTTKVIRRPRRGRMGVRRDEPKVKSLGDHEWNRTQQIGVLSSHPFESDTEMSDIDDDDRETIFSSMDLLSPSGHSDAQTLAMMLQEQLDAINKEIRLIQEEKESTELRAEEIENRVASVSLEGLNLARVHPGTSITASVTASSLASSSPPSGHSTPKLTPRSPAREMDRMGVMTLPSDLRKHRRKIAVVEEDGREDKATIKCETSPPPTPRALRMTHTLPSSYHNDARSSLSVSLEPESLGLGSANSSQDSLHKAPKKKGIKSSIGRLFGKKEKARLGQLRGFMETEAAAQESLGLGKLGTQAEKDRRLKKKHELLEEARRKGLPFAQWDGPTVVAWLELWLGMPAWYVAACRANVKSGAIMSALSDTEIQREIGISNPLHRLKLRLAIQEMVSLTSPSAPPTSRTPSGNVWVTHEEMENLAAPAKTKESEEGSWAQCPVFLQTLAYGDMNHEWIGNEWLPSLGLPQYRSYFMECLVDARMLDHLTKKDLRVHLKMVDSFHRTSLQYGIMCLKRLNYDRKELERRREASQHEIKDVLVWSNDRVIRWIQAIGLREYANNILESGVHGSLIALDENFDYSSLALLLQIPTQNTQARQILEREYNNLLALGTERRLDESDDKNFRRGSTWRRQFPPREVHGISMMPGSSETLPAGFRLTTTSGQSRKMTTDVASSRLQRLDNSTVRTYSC
UniProt Q7Z4H8: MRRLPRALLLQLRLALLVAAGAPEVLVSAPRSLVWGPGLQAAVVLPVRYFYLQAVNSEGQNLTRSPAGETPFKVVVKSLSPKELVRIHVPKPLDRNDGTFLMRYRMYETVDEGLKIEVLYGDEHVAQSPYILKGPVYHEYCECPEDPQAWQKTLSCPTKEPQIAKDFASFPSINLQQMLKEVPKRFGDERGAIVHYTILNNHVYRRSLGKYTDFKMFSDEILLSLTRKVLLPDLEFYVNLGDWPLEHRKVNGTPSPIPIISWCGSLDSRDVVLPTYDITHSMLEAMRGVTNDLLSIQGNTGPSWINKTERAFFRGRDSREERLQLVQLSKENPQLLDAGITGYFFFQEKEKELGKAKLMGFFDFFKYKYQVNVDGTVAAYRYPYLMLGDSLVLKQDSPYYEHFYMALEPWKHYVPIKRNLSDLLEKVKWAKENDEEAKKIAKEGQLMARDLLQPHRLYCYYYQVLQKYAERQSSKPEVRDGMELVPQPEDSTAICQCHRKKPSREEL
UniProt O15162: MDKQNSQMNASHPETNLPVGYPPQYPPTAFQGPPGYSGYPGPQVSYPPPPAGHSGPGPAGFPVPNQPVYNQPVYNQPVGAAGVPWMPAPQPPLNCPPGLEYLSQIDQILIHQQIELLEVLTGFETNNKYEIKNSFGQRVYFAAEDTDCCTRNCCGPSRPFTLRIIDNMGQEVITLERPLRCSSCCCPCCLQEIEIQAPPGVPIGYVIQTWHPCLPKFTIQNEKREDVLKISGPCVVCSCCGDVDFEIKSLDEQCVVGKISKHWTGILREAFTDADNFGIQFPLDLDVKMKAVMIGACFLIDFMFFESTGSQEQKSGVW
UniProt Q6P1K2: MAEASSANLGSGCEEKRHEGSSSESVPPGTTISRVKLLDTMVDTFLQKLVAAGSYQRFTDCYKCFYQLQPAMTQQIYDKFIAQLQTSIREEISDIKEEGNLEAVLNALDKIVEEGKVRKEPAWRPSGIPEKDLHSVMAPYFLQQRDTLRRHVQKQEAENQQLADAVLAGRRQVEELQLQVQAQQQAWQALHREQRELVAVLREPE
UniProt P30405: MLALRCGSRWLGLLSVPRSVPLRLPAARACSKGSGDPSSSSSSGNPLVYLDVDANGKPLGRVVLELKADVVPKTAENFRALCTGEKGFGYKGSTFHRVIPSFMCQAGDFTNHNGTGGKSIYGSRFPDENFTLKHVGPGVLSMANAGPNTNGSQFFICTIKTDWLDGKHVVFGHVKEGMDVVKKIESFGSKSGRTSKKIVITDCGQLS
UniProt O94903: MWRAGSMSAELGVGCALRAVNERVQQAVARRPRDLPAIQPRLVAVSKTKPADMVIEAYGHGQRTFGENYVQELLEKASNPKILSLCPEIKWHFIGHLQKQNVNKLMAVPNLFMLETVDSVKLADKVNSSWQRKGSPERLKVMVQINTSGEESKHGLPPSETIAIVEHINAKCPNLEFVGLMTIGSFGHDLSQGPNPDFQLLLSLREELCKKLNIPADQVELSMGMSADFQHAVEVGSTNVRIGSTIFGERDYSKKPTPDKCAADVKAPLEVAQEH
UniProt Q15181: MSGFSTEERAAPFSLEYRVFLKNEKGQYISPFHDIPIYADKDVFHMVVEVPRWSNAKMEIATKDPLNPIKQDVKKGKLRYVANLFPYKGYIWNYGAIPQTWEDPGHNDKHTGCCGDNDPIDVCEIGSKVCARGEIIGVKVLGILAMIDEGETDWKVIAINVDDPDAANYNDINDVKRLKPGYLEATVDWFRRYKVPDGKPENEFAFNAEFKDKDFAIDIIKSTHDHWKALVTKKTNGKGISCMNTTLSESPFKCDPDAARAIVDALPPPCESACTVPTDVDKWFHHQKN
UniProt Q8N490: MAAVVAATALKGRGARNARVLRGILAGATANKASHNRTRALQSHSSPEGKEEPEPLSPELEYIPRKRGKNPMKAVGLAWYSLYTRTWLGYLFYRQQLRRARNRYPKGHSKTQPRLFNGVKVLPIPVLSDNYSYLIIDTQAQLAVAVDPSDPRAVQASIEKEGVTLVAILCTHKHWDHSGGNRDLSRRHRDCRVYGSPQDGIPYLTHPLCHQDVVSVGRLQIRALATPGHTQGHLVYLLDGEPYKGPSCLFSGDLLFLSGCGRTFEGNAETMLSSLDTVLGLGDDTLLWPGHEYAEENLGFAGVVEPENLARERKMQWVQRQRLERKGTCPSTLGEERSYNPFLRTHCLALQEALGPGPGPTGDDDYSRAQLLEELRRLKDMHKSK
UniProt Q99575: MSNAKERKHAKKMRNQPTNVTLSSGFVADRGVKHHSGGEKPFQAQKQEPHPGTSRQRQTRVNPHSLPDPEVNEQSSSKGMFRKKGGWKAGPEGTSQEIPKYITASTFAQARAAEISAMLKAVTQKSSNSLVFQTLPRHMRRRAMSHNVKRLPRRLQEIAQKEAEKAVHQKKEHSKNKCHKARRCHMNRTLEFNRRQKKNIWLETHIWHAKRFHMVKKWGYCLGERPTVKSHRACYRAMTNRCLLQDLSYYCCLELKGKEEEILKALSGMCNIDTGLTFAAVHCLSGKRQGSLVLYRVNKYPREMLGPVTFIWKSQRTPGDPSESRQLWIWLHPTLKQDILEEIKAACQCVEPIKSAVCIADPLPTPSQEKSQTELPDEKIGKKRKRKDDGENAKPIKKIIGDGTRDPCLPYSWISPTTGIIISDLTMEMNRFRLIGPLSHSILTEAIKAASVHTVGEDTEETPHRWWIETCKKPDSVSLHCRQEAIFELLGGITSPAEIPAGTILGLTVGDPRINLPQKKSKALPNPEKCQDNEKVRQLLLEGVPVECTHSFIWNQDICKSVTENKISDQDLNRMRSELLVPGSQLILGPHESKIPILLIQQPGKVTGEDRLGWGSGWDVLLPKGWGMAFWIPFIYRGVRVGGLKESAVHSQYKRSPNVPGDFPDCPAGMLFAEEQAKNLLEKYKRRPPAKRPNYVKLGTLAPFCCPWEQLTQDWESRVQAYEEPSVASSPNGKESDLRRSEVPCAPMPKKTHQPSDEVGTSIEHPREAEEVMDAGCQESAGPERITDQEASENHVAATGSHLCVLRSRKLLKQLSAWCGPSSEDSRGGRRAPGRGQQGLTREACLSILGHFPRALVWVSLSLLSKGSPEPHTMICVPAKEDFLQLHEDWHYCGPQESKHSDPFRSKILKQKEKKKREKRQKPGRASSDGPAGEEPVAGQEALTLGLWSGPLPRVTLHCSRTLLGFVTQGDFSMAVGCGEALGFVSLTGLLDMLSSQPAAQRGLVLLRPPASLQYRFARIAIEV
UniProt O75817: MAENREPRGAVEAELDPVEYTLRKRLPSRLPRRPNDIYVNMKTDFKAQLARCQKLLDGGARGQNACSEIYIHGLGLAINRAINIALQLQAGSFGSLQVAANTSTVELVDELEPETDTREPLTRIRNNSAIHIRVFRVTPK
UniProt Q15054: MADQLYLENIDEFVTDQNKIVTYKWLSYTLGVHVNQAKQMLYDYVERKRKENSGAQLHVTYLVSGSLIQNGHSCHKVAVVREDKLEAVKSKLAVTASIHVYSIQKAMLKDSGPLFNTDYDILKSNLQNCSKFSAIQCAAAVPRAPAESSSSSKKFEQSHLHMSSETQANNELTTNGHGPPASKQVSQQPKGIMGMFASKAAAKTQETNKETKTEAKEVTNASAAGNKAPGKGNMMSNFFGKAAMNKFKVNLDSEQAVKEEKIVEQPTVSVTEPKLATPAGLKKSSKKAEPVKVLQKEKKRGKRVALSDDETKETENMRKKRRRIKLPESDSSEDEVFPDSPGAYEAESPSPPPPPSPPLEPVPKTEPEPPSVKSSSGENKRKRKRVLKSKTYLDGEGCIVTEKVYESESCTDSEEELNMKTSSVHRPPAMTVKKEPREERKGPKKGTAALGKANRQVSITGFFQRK
UniProt P05423: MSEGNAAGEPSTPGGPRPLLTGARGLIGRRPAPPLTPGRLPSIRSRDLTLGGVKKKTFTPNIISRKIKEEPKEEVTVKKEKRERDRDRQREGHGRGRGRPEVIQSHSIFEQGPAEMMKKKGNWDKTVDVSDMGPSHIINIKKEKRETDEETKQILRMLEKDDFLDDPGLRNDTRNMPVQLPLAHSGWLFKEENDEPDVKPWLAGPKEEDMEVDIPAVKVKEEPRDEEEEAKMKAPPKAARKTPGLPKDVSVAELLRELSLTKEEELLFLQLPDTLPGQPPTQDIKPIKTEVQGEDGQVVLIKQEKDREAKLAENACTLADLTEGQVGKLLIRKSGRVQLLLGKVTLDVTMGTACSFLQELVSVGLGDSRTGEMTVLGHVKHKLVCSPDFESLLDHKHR

How the values were obtained:
Experiment in all cases: log2 fold change, soluble protein after heating vs DMSO (PISA); higher = thermal stabilisation; K562 cells, 10 uM, 30 min; active = over 0.2 and 3.5 SD of the protein, either way, in both replicates (recomputed)
[1] = compound: COC1=CC=C(C=C1)CN2C=CC3=C2C=C(C=C3)C(=O)NO
In short: (§1)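 Quantification of soluble protein used TMTpro 16plex LC-MS/MS, with channel sums equalised. Samples were the supernatant after 21,000xg for 90 min of pooled aliquots from K562 cells (2×10^6 cells/mL) treated with 10 μM compound for 30 min, heated for 3 min over 48°C-58°C, and extracted in PBS with 0.5% NP-40 at 4°C. Values, from duplicates, describe thermal stability against control samples on a log2 fold-change scale.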

[2] = compound: CON(C)C(=O)N1N=C(c2cc(F)ccc2F)S[C@@]1(CCCN)c1ccccc1 [filanesib]
In short: as §1

[3] = compound: CO[C@H]1C[C@@H]2CC[C@@H](C)[C@@](O)(O2)C(=O)C(=O)N2CCCC[C@H]2C(=O)O[C@H]([C@H](C)C[C@@H]2CC[C@H](n3cnnn3)[C@H](OC)C2)CC(=O)[C@H](C)/C=C(\C)[C@@H](O)[C@@H](OC)C(=O)[C@H](C)C[C@H](C)/C=C/C=C/C=C/1C [zotarolimus]
In short: as §1

[4] = compound: COc1cc(C(=O)O)ccc1NC(=O)[C@@H]1N[C@@H](CC(C)(C)C)[C@](C#N)(c2ccc(Cl)cc2F)[C@H]1c1cccc(Cl)c1F [idasanutlin]
In short: as §1

[5] = compound: COc1cc(Nc2ncc3c(n2)-c2ccc(Cl)cc2C(c2c(F)cccc2OC)=NC3)ccc1C(=O)O [alisertib]
In short: as §1

[6] = compound: COc1cc2nc(-c3cc(F)ccc3O)nc(N[C@@H]3CNC[C@H]3C(C)(C)O)c2cc1OC
In short: as §1

[7] = compound: COc1cc2ncnc(Nc3ccc(F)c(Cl)c3)c2cc1OCCCN1CCOCC1 [gefitinib]
In short: as §1

[8] = compound: COc1cccc2cc(-c3nc([C@H]4CC[C@H](C(=O)O)CC4)n4ncnc(N)c34)[nH]c12
In short: as §1

[9] = compound: CS(=O)(=O)CCNCc1ccc(-c2ccc3ncnc(Nc4ccc(OCc5cccc(F)c5)c(Cl)c4)c3c2)o1 [lapatinib]
In short: as §1

[10] = compound: CS(=O)(=O)N1CCN(Cc2cc3nc(-c4cccc5[nH]ncc45)nc(N4CCOCC4)c3s2)CC1 [pictilisib]
In short: as §1

Measured: log2 fold change

PPFIA2 (UniProt O75334)
inactive: [1] -0.089 | [2] 0.125 | [3] -0.005 | [4] -0.078 | [5] 0.08 | [6] 0.005 | [7] -0.065 | [8] -0.083 | [9] 0.076 | [10] 0.056

POLR2K (UniProt P53803)
inactive: [1] -0.052 | [2] 0.071 | [3] -0.05 | [4] -0.101 | [5] -0.005 | [6] 0.134 | [7] -0.012 | [8] -0.213 | [9] 0.003 | [10] 0.117

POGLUT3 (UniProt Q7Z4H8)
inactive: [1] -0.089 | [2] 0.009 | [3] 0.006 | [4] 0.007 | [5] -0.003 | [6] 0.059 | [7] 0.004 | [8] -0.04 | [9] 0.02 | [10] -0.03

PLSCR1 (UniProt O15162)
inactive: [1] -0.017 | [2] 0.01 | [3] -0.012 | [4] 0.033 | [5] -0.006 | [6] -0.046 | [7] 0.016 | [8] 0.145 | [9] 0.051 | [10] 0.037

PMF1 (UniProt Q6P1K2)
inactive: [1] -0.07 | [2] 0 | [3] 0.062 | [4] 0.159 | [5] 0.027 | [6] -0.057 | [7] 0.391 | [8] -0.053 | [9] 0.014 | [10] 0.074

PPIF (UniProt P30405)
inactive: [1] -0.176 | [2] -0.035 | [3] 0.036 | [4] -0.075 | [5] -0.055 | [6] 0.073 | [7] 0.041 | [8] 0.025 | [9] -0.045 | [10] 0.012

PLPBP (UniProt O94903)
inactive: [1] 0.018 | [2] -0.014 | [3] 0.078 | [4] 0.055 | [5] 0.033 | [6] -0.021 | [7] 0.048 | [8] -0.139 | [9] -0.03 | [10] 0.245

PPA1 (UniProt Q15181)
inactive: [1] 0 | [2] -0.092 | [3] 0.019 | [4] -0.026 | [5] -0.042 | [6] 0.041 | [7] -0.004 | [8] 0.008 | [9] 0.003 | [10] 0.072

PNKD isoform 2 (UniProt Q8N490)
inactive: [1] -0.051 | [2] -0.008 | [3] -0.066 | [4] -0.025 | [5] -0.094 | [6] 0.001 | [7] 0.03 | [8] 0.04 | [9] -0.086 | [10] 0.052

POP1 (UniProt Q99575)
inactive: [1] 0.025 | [2] -0.023 | [3] 0.033 | [4] -0.009 | [5] -0.054 | [6] -0.109 | [7] 0.012 | [8] 0.021 | [9] 0.084 | [10] -0.01

POLR2H (UniProt P52434)
inactive: [1] -0.073 | [2] -0.03 | [3] -0.029 | [4] -0.068 | [5] -0.053 | [6] 0.184 | [7] -0.014 | [8] -0.016 | [9] -0.053 | [10] -0.041

POP7 (UniProt O75817)
inactive: [1] 0.039 | [2] 0.034 | [3] 0.071 | [4] 0.12 | [5] -0.121 | [6] -0.125 | [7] -0.089 | [8] 0.054 | [9] 0.062 | [10] -0.049

POLD3 (UniProt Q15054)
inactive: [1] 0.002 | [2] -0.176 | [3] 0.123 | [4] -0.029 | [5] 0.002 | [6] -0.05 | [7] 0.066 | [8] 0.1 | [9] 0.098 | [10] 0.004

POLR3D (UniProt P05423)
inactive: [1] -0.014 | [2] 0.041 | [3] 0.065 | [5] -0.091 | [6] -0.017 | [7] 0.036 | [8] -0.136 | [9] -0.001 | [10] 0.013
active: [4] 0.574
